Here are results for one sequence from paper PMC12201645.

These are yes or no findings as the source states them, for the method shown. In cells and extracts the contact can be indirect.

The assay concerns the target T1, PIN2-mCherry (Arabidopsis thaliana) (UniProt Q9LU77).
T1 sequence: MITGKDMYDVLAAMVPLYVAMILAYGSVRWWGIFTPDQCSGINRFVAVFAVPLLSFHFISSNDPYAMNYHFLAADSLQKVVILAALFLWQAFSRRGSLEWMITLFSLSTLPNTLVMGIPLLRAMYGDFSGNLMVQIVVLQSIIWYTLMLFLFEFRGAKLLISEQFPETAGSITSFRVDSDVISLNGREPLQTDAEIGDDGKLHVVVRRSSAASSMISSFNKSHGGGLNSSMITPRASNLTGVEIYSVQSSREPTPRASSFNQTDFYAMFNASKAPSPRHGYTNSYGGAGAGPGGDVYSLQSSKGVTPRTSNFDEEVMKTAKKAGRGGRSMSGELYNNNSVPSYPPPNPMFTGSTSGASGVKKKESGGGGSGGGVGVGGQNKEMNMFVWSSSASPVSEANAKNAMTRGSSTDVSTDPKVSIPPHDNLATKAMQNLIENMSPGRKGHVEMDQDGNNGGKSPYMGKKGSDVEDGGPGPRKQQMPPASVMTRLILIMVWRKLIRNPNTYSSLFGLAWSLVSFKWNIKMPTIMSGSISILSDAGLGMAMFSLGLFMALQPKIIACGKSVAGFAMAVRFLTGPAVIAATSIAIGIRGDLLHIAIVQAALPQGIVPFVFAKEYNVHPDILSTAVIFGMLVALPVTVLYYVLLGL
As to the kind of experiment: FRET or BRET; FLIM-FRET (time correlated single photon counting, PicoQuant kit on Olympus FV3000 CLSM) in living transgenic A. thaliana seedlings; donor EGFP/GFP6/GFP, acceptor mCherry on PIN2; tau average intensity; E = 1 - tauDA/tauD. For orientation: BRET reads energy transfer from a luciferase to a nearby fluorophore.

As for “BRASSINOSTEROID …1 fused to GFP (BRI1-GFP) (from UniProt O22476 24-1196) (receptor)”, the binding result is on record as “no binding”.
